Test results: article PMC10724271
These are yes or no findings as the source states them, for the method shown. Binding seen in cells or lysates may run through a third protein. Some entries that bind do so weakly or less than the wild type.

The chains behind the UniProt entries cited, without tags or fusion partners.
UniProt Q9H8M2: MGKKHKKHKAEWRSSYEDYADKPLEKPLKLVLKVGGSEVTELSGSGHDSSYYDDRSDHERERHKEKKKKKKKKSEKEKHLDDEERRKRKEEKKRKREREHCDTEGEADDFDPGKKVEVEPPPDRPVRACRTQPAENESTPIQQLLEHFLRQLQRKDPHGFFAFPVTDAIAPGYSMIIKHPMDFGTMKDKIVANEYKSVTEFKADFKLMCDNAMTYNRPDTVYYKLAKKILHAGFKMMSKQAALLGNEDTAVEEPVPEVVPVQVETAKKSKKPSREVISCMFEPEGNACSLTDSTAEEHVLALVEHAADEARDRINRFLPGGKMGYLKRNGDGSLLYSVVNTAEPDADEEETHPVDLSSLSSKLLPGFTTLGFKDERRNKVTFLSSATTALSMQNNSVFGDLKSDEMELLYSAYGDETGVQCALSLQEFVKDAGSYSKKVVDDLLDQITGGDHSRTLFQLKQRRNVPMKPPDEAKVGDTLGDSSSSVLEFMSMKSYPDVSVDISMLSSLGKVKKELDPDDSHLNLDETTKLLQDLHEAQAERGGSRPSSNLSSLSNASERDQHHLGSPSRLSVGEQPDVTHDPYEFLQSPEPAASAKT

Target: T1, CTCF (UniProt P49711)
T1 sequence: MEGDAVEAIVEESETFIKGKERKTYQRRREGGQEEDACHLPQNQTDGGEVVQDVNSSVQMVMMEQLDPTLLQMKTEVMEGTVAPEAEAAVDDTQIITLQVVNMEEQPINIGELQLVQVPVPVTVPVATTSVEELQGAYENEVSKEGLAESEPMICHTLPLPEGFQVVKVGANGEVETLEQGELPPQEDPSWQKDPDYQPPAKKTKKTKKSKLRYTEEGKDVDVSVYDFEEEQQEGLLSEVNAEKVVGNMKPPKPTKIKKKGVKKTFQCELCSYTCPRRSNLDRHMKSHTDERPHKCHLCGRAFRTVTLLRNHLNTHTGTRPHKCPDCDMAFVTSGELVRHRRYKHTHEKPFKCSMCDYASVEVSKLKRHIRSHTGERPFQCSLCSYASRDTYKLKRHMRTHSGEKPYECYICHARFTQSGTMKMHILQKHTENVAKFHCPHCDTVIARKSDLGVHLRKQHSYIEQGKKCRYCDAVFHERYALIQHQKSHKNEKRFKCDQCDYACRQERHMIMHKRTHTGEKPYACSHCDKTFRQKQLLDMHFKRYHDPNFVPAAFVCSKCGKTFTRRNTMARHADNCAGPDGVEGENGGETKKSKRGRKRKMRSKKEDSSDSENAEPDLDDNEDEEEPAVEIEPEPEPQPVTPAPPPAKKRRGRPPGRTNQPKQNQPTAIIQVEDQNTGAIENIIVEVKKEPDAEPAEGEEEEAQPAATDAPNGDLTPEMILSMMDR
Assay: co-IP; immunoprecipitation studies (Supplementary Fig. 7f); cells, bait and conditions not told in the text shown

With BRD9 (from UniProt Q9H8M2 1-597) the binding was “binds”.
